In doi:10.1101/611731:
These are yes or no findings as the source states them, for the method shown. In cells and extracts the contact can be indirect. Some binding calls cover weakened binding; strength is not graded here. Where a sequence is shown, tags or fusion partners need not be part of it.

T1: Sir2-myc (Drosophila) (UniProt Q9VK34)
T1 sequence: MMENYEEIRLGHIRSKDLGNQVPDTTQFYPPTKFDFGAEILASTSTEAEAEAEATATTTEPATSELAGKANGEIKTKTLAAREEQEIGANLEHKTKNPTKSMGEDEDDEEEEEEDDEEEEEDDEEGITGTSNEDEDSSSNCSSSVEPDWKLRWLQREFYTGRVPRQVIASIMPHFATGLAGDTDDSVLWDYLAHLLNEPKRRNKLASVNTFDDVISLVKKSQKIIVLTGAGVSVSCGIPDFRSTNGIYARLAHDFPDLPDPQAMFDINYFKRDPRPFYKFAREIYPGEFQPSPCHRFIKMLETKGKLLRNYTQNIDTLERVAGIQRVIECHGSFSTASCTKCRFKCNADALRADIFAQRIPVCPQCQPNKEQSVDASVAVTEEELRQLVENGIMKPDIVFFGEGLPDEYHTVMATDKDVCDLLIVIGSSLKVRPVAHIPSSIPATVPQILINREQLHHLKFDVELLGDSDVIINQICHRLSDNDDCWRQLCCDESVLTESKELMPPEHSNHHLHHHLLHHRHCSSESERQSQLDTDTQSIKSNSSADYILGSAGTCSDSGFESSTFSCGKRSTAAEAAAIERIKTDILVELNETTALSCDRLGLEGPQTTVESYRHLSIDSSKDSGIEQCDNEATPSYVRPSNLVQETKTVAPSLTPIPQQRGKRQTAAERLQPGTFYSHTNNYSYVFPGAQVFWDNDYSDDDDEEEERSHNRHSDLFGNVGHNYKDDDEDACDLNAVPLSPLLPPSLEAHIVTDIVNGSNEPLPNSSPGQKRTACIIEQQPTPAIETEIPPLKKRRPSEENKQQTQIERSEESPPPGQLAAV

T2: GST-Atg8a N-terminal half (amino acid residues 1-71) (Drosophila) (UniProt Q9W2S2)
T2 sequence: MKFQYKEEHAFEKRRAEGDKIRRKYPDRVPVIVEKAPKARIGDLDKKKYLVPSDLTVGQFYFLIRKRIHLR

B1: 6×His-Sir2 (enzyme, UniProt Q9VK34 1-823)
chain: MMENYEEIRLGHIRSKDLGNQVPDTTQFYPPTKFDFGAEILASTSTEAEAEAEATATTTEPATSELAGKANGEIKTKTLAAREEQEIGANLEHKTKNPTKSMGEDEDDEEEEEEDDEEEEEDDEEGITGTSNEDEDSSSNCSSSVEPDWKLRWLQREFYTGRVPRQVIASIMPHFATGLAGDTDDSVLWDYLAHLLNEPKRRNKLASVNTFDDVISLVKKSQKIIVLTGAGVSVSCGIPDFRSTNGIYARLAHDFPDLPDPQAMFDINYFKRDPRPFYKFAREIYPGEFQPSPCHRFIKMLETKGKLLRNYTQNIDTLERVAGIQRVIECHGSFSTASCTKCRFKCNADALRADIFAQRIPVCPQCQPNKEQSVDASVAVTEEELRQLVENGIMKPDIVFFGEGLPDEYHTVMATDKDVCDLLIVIGSSLKVRPVAHIPSSIPATVPQILINREQLHHLKFDVELLGDSDVIINQICHRLSDNDDCWRQLCCDESVLTESKELMPPEHSNHHLHHHLLHHRHCSSESERQSQLDTDTQSIKSNSSADYILGSAGTCSDSGFESSTFSCGKRSTAAEAAAIERIKTDILVELNETTALSCDRLGLEGPQTTVESYRHLSIDSSKDSGIEQCDNEATPSYVRPSNLVQETKTVAPSLTPIPQQRGKRQTAAERLQPGTFYSHTNNYSYVFPGAQVFWDNDYSDDDDEEEERSHNRHSDLFGNVGHNYKDDDEDACDLNAVPLSPLLPPSLEAHIVTDIVNGSNEPLPNSSPGQKRTACIIEQQPTPAIETEIPPLKKRRPSEENKQQTQIERSEESPPPGQLAAV
B2: radiolabelled myc-YL-1 WT (protein, UniProt Q9VKM6 1-351)
chain: MAASRSRRNNAGNKIAHLLNEEEEDDFYKTSYGGFQEDEEDKEYEQKDEEEDVVDSDFSIDENDEPVSDQEEAPEKKRKRGVVNTKAYKETKPAVKKETKATPALHKKRPGGGVTKRRPRPRFTVLDSGRKSIRTSTAIKTQATKIRLKELDDARKRKKKKVRVEDYMPTQEELLEEAKITEEENTKSLEKFQKMELEKKKSRPTKRTFSGPTIRYHSLTMPAMRKPTRGANPAVDSKDLAGKCERTFVTIENDFNDKVFQSLFRHKAPPKASNGICPITRLPARYFDPITQQPYYSIQAFKILREAYYMQLEQQGGGSEQPELAKWLEWRKLVKENRLKASAAASKNGDN
modifications: 35S-methionine-labelled

Columns and labels:
Sir2-myc (Drosophila) = molecular target: T1, Sir2-myc (Drosophila); assay: co-IP
[1] = molecular target: GST-tagged Atg8a-WT (Drosophila) (UniProt Q9W2S2); assay: pull-down
[2] = molecular target: T2, GST-Atg8a N-terminal half (amino acid residues 1-71) (Drosophila); assay: pull-down
[3] = molecular target: GST-tagged Atg8a-LDS mutant (Y49A) (Drosophila) (UniProt Q9W2S2); assay: pull-down

| Molecule | binding (Sir2-myc (Drosophila)) | binding [1] | binding [2] | binding [3] |
| --- | --- | --- | --- | --- |
| mCherry-Atg8a (from UniProt Q9W2S2 1-121) | binds |  |  |  |
| B1 |  | binds |  |  |
| B2 |  | binds | binds | binds |
